This assay is described as follows: qHTS Assay to Find Inhibitors of Chronic Active B-Cell Receptor Signaling. Conditions: ABC-DLBCL IkBa-CBG/CBR reporter, luminescence ratio (green luciferase fused to IkBa over red control in TMD8 lymphoma cells), 4 h. The method, boiled down: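 Concentration-response series (up to 46 uM) were applied to TMD8 dual-reporter cells for 4 h at 37C with doxycycline. Green/red ratio, after filter-overlap correction, defined %Activity; red signal alone was normalised to basal cells and zero luminescence.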

The mark [1] stands for this setting: measured here: CBR red luminescence, cell number.
The mark [2] stands for this setting: measured here: IkBa-CBG green luminescence.

SMILES strings stand for the structures. Some of the results follow. Further columns of the screen follow, without active or inactive calls. The list favours compounds with an active or inconclusive main result. Potencies come from curve fits of mixed quality, noted in brackets.

With `O=C(NC(c1ccccc1)c1c(O)ccc2ccccc12)c1ccccc1Cl` (stereo unspecified), under setting [1], the AC50 is 35.5 µM [falling, single point].
Same read-out and setting: the result for `Cc1ccc(C)c(C(=O)N2CCC(n3nccc3NC(=O)C3CC3)CC2)c1` reads 17.8 µM [rising, partial curve, poor fit]; that for `C=CCNC(=O)c1onc(CSc2ccc(Cl)cc2)c1C(=O)O`, 35.5 µM [falling, single point]; that for `O=C(CNc1cccc([N+](=O)[O-])c1)NC(=O)NC1CCCCC1`, 23.1 µM [falling, partial curve, poor fit].
For `COc1ccc(NC(=O)N2CCc3ccccc3C2)c(OC)c1`, the AC50 under setting [1] is 7.08 µM [falling, partial curve].
The same measure, in the same setting: the result for `CC(Sc1nnc(-c2cccnc2)n1C)C(=O)N1CCOCC1` (stereo unspecified) reads 0.259 µM [rising, full curve, poor fit]; that for `COc1ccc2c(c1OC)C(=O)N1N=C(c3ccc(F)cc3)CC21` (stereo unspecified), 11.2 µM [falling, partial curve].
As for `CCc1ccc(C(=O)CN2C(=O)NC(C)(c3ccc(C)cc3)C2=O)cc1` (stereo unspecified), the AC50 under setting [1] is 15.8 µM [falling, partial curve, poor fit].
Same read-out and setting: the result for `O=C(Nc1cccc(S(=O)(=O)NC2=NCCC2)c1)c1cnc(Cl)c(Cl)c1` reads 32.6 µM [falling, single point]; that for `O=C(Nc1ccc(N2CCCC2)c(Cl)c1)c1cccs1`, 35.5 µM [falling, single point]; that for `C=CC[C@@H](CC(=O)N(CCO)Cc1ccccc1)C(=O)NCCOC(=O)[C@@H](CC=C)Cc1ccc(F)cc1`, 29.1 µM [falling, single point].
The same measure, in the same setting: the result for `O=C(CC1(O)C(=O)c2ccccc2C1=O)c1ccccc1` reads 18.4 µM [rising, partial curve, poor fit].
For the compound `CCOC(=O)/C=C/S(=O)(=O)c1ccc(NC(C)=O)cc1`, the AC50 under setting [1] was 3.98 µM [falling, full curve].
Same read-out and setting: the result for `CCCCc1ccc(-c2ccc(Br)cc2)nc1` reads 0.731 µM [rising, full curve]; that for `Cc1ccc(C(=O)NCC2CCCO2)cc1S(=O)(=O)N1CCCCC1` (stereo unspecified), 35.5 µM [rising, single point]; that for `CC(=O)Oc1cc2c3c(c1)/C(=C1/SC(=S)NC1=O)C(=O)N3C(C)(C)C=C2C`, 0.562 µM [rising, full curve, poor fit].
Same read-out and setting: the result for `CCn1c(Cc2ccc(OC)cc2)nnc1SCC(=O)Nc1nc2ccccc2s1` reads 5.8 µM [falling, single point]; that for `CCC(CO)n1c(SCc2cc(=O)oc3cc(C)ccc23)nc2ccccc2c1=O` (stereo unspecified), 2.59 µM [rising, partial curve, poor fit].
As for `COc1ccc(Cl)cc1NS(=O)(=O)c1ccc2c(c1)NC(=O)CCS2`, the AC50 under setting [1] was 11.2 µM [falling, partial curve, poor fit].
With `Cc1ncc(CO)c(/C=N/NC(=O)c2ccc(O)cc2)c1O`, the AC50 under setting [1] was 0.82 µM [falling, full curve].
Take `Cc1cccc(NC(=S)N(Cc2cccs2)Cc2cc3cc(C)ccc3[nH]c2=O)c1`: under setting [1], the AC50 was 1.64 µM [rising, full curve].
Same read-out and setting: for `CCc1oc2ccccc2c1C(=O)CCN1CCCCC1` the value was 5.62 µM [falling, partial curve, poor fit]; for `COc1ccccc1NC(=O)Nc1ccc(C(N)=O)cc1`, 2.51 µM [falling, partial curve, poor fit].
On the same count and under the same terms, for `O=C(N/N=C/c1ccc([N+](=O)[O-])s1)c1ccccc1Br` the value was 35.5 µM [falling, single point]; for `CC1Cc2nc(SCC(=O)Nc3ccc4c(c3)OCCO4)n(C)c(=O)c2S1` (stereo unspecified), 5.8 µM [falling, full curve, poor fit]; for `C=CCn1c(=S)[nH]c2cc(C(=O)Nc3ccc(F)cc3)ccc2c1=O`, 0.794 µM [falling, full curve].
The same measure, in the same setting: for `CCN1CCN(Cc2ccc(NC(=O)c3ccc(C)c(NC(=O)N4CCNC4=O)c3)cc2C(F)(F)F)CC1` the value was 17.8 µM [falling, partial curve, poor fit].
As to `CC(=O)C1C(c2ccc(Cl)cc2)c2c(noc2C)CC1(C)O` (stereo unspecified), under setting [1], the AC50 was 35.5 µM [rising, single point].
Consider `CC(C)(C)c1ccc(NC(=O)COc2ccc(-n3ccnc3)cc2)cc1`, for which the AC50 under setting [1] was 0.731 µM [falling, partial curve, poor fit].
On the same count and under the same terms, the result for `Cc1ccc(-c2noc(C3CCCN(C(=O)C4CCCCC4)C3)n2)o1` (stereo unspecified) reads 4.61 µM [rising, full curve]; that for `COc1ccc(-c2nc(-c3cccc(C)c3)nc(Cl)c2C#N)cc1`, 0.316 µM [rising, full curve, poor fit].
On the same count and under the same terms, for `CC(Oc1ccc(Cl)cc1Cl)C(=O)NC1CCSC1=O` (stereo unspecified) the value was 16.4 µM [rising, single point].
With `CCc1ccccc1NC(=O)CCCSc1nc2ccccc2s1`, the AC50 is, setting by setting: under setting [1], 0.82 µM [rising, full curve, poor fit]; under setting [2], 3.26 µM [rising, full curve].
As to `O=C(N/N=C(\Cc1ncc[nH]1)c1ccccc1)c1ccccc1`, under setting [1], the AC50 is 3.16 µM [falling, partial curve, poor fit].
The same measure, in the same setting: for `CC(=O)c1c(C)[nH]c(C(=O)OCC(=O)Nc2ccc([N+](=O)[O-])cc2Cl)c1C` the value was 2.59 µM [rising, full curve]; for `Cc1ccc2c(c1)sc1nc(-c3cc4cc(Cl)ccc4oc3=O)cn12`, 8.91 µM [falling, partial curve, poor fit].
On to `O=C(N/N=C/c1ccc(OC(=O)c2ccccc2)cc1)c1cccc(O)c1`, for which, under setting [1], the AC50 was 17.8 µM [falling, partial curve, poor fit].
Regarding `CCOc1ccc(Oc2nc(C)cc(OC)n2)nn1`, the AC50 under setting [1] is 0.103 µM [rising, full curve, poor fit].
On the same count and under the same terms, for `O=C(O)CN1C(=O)/C(=C\c2cccc(OCc3ccc(F)cc3)c2)SC1=S` the value was 31.6 µM [rising, single point]; for `Cc1ccc(N2CC(NC(=O)Cc3ccc(F)cc3)CC2=O)cc1` (stereo unspecified), 7.94 µM [rising, partial curve, poor fit]; for `CCOc1cc(OCC)cc(C(=O)Nc2cccnc2)c1`, 14.1 µM [falling, partial curve, poor fit].
`O=C(CSC(=S)N1CCOCC1)Nc1nccs1`: the AC50 under setting [1] is 11.2 µM [falling, partial curve, poor fit].
Turning to `Cn1c(CCNC(=O)c2ccco2)nc2cc(NC(=O)C3CCCCC3)ccc21`, under setting [1], the AC50 was 18.4 µM [falling, single point].
On the same count and under the same terms, the result for `CC(O)[C@H]1CNC(=O)C(=O)N1CCc1cccc(F)c1` (stereo partly specified) reads 35.5 µM [falling, single point]; that for `Cc1cc(C)n(-c2nc(SCCN(C)C)c3c4c(sc3n2)COC(C)(C)C4)n1`, 6.31 µM [falling, single point]; that for `CCOc1ccc(-c2c(C(=O)N/N=C/c3ccc(OC)cc3)nnn2-c2nonc2N)cc1`, 4.11 µM [rising, full curve, poor fit].
Same read-out and setting: for `CC(=O)Nc1cccc(C(=O)/C=C/c2ccco2)c1` the value was 8.91 µM [falling, partial curve, poor fit]; for `CCOc1cccc(C(=O)Nc2cccc(NC(=O)c3ccco3)c2)c1`, 8.91 µM [falling, partial curve, poor fit]; for `O=C(CN1C(=O)NC2(CCCC2)C1=O)Nc1ccc(Cl)c(C(F)(F)F)c1`, 17.8 µM [falling, partial curve, poor fit].
Regarding `N#Cc1c2c(c(-n3cnc4ccccc43)n3c1nc1ccccc13)CCC2`, the AC50 under setting [1] was 0.1 µM [falling, full curve, poor fit].
On the same count and under the same terms, for `Cc1ccc(NC(=O)CSC2=C(C#N)C(c3ccco3)C3=C(CC(C)(C)CC3=O)N2)cc1` (stereo unspecified) the value was 32.6 µM [falling, single point].
Same read-out and setting: the result for `CCOc1ccc(OCCn2c(=S)[nH]c3ccccc32)cc1` reads 3.16 µM [rising, full curve, poor fit]; that for `O=C(O)c1cccc(NC(=S)N/N=C/c2ccccc2OCc2cccc(Br)c2)c1`, 35.5 µM [falling, single point]; that for `COc1cc(/C=N\NC(=O)c2ccc(C)nc2)ccc1OC(=O)c1cccc(F)c1`, 6.31 µM [falling, single point].
Same read-out and setting: the result for `CCOc1ccc(NC(=O)CN(C)C(=O)CSc2ccccc2)cc1OCC` reads 1.84 µM [rising, partial curve].
On to `Cc1c(Cl)cccc1NC(=O)[C@@H](NC(=O)c1ccccc1Cl)C(C)C`, for which the AC50 under setting [1] is 7.31 µM [rising, partial curve, poor fit].
Same read-out and setting: for `COc1ccc2cc(CN(CC3CCCO3)C(=O)Nc3ccccc3OC)c(=O)[nH]c2c1` (stereo unspecified) the value was 35.5 µM [falling, partial curve, poor fit]; for `CCOC(=O)c1cc(C)n(Cc2ccc(OCC)c(OC)c2)c1C`, 0.259 µM [falling, full curve, poor fit]; for `COc1cc(SC)ccc1C(=O)OCC(=O)NCC(C)C`, 8.91 µM [rising, partial curve, poor fit].
Take `O=C1c2ccccc2C(=O)C1(CO)c1ccc(OC(F)F)cc1`: the AC50 under setting [1] was 2.51 µM [falling, full curve, poor fit].
Consider `Cc1cccc(NC(=O)Nc2cccc(C#N)c2)n1`, for which the AC50 under setting [1] is 23.1 µM [falling, single point] and the AC50 under setting [2] was 16.4 µM [rising, partial curve, poor fit].
For `CCOC(=O)c1[nH]c(C)c(C(=O)c2ccc(C)cc2)c1C`, the AC50 by setting is: under setting [1], 23.1 µM [rising, partial curve]; under setting [2], 20.6 µM [falling, partial curve].
As to `COc1cccc(NC(=O)c2ccc3nsnc3c2)c1`, under setting [1], the AC50 was 2.82 µM [falling, partial curve, poor fit].

As usually defined, the AC50 is the concentration giving half of the maximal activity seen.

These data come from PubChem BioAssay AID493014 (National Center for Advancing Translational Sciences (NCATS), 2011).
